Experimental data taken from patent US20200207836A1.
No constants are given. Whether binding was seen depends on the method and setting. Some results given as binding are weak or reduced against the parent protein; the word gives no strength.

By UniProt entry, the sequences of proteins in these tests, tags left out. Where a name states a change or a piece, a line headed by the entry shows the natural chain unless it says otherwise.
UniProt Q15109: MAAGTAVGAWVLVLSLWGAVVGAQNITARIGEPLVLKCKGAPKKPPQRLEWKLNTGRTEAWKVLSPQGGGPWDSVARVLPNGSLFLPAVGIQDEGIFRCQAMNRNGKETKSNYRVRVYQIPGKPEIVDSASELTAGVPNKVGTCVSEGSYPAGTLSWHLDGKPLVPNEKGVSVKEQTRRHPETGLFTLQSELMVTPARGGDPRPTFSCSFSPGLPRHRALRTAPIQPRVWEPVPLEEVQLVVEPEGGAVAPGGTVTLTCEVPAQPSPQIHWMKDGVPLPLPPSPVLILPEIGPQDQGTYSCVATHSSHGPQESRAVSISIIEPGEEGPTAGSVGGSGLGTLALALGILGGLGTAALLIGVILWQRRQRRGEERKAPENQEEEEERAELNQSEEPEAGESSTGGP

Target: AT1/Rluc8 (human)
Experiment: BRET saturation, HEK293FT cells

binding: binds
Substance: RAGE/Venus (from UniProt Q15109 23-404) (receptor)
